No constants are given. Whether binding was seen depends on the method and setting. Binding can be weak; no strength is given. Tags and fused reporters may be left off the sequences shown. For some of these results: In cells and extracts the contact can be indirect. One block for each molecule: values may come before it.
What was measured:
[1] = target: T1, GST-CTU2 (Arabidopsis thaliana) (UniProt O65628); assay: pull-down; GST or GST-CTU2 (5 μg) coupled to glutathione beads, incubated with ROL5-His (10 μg) in 0.5 mL 50 mM Tris-HCl pH 7.5, 150 mM NaCl, 1 mM EDTA, 2 mM DTT at 4°C for 2 hr; wash with binding buffer plus 2% NP-40; western blot with anti-GST or anti-His; both purified
T1 sequence: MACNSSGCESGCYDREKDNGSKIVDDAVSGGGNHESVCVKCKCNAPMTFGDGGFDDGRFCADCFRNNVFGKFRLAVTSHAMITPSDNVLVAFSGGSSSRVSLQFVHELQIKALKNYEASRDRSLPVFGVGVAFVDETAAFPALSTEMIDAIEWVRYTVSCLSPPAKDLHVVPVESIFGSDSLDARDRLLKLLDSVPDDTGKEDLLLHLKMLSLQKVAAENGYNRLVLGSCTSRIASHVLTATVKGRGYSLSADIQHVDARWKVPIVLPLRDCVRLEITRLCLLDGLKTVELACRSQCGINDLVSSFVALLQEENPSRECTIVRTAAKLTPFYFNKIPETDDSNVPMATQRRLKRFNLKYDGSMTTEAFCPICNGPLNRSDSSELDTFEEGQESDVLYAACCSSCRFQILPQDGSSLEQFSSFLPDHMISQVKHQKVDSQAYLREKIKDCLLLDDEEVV

Chains of the proteins cited; added tags and fusions are not shown. Lines headed by an entry give the natural chain unless they say otherwise; changes in a name come on top.
UniProt O64862: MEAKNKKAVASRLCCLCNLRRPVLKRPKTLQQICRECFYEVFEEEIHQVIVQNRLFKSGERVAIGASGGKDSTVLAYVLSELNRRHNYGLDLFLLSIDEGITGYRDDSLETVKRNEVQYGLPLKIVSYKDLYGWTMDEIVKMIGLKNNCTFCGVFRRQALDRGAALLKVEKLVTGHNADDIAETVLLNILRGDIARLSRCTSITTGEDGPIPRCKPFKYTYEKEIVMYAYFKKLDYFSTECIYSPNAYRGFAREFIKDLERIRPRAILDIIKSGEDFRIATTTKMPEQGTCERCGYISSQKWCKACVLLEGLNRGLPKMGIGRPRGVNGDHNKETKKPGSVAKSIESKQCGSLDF

[2] = target: T2, cLUC-CTU2 (Arabidopsis thaliana) (UniProt O65628); assay: split reporter; split luciferase, nLUC and cLUC fusions transiently expressed in N. benthamiana leaves, 48 hr, 1 mM luciferin, CCD camera
T2 sequence: T1 sequence

[3] = target: T3, CTU2-GFP (Arabidopsis thaliana) (UniProt O65628); assay: co-IP; ROL5-FLAG and CTU2-GFP co-expressed in N. benthamiana leaves; lysate precipitated with GFP-Trap magnetic beads at 4°C for 2 hr; wash with 150–500 mM NaCl; western blot with anti-FLAG and anti-GFP
T3 sequence: T1 sequence

[4] = target: ROL5 in pGBKT7 (yeast two-hybrid fusion) (Arabidopsis thaliana) (UniProt O64862); assay: two-hybrid; Matchmaker GAL4 system, bait in pGBKT7 and prey in pGADT7 co-transformed into yeast AH109; growth on SD/-Leu/-Trp/-His medium; empty vectors as negative controls

binding [2]: binds
Molecule: ROL5-nLUC (from UniProt O64862)

binding [3]: binds
Molecule: ROL5-FLAG (from UniProt O64862)

More lines, now with the values behind:

Molecule: ROL5-His (from UniProt O64862)
binding [1]: binds

B1: CTU2 in pGADT7 (yeast two-hybrid fusion) (protein, UniProt O65628 1-458)
chain: T1 sequence
binding [4]: binds

Reference: publication PMC10863982 (2024)
